The experiment concerns lipopolysaccharide-induced COPD mice. The experiment is described as follows: Lipopolysaccharide-induced COPD mice, inflammatory cells (WBC) in bronchial airways. In kind it is in vivo, ICR mice. The following applies: BALF; positive control group b.i.d., nebulizing 30 min.

For `COc1ccc(C[C@@H](C)NC[C@H](O)c2ccc(O)c(NC=O)c2)cc1` [Arformoterol], the WBC was 0.5310 ± 0.1424 109/L.

The values above are taken from US11534398B2, “Inhaled preparation of isoglycyrrhizic acid or salt thereof, and use in preparing drugs for treating respiratory system diseases” (priority 2016, dated 2022).
